According to patent US20250282868A1:
These are yes or no findings as the source states them, for the method shown. Some results given as binding are weak or reduced against the parent protein; the word gives no strength.

molecular target: cynomolgus TREM2 (cynomolgus); assay: column 'Considered cross-reactive', CHO-cynoTREM2 cells

Row | Binder | binding
1 | EOS006173 (antibody, V domains shown) VH: EVQLVESGGGLVQPGRSLRLSCTASGFTFGDYAMSWFRQAPGKGLEWVGFIGSKAYGGTTEYTASVKGRFTISRDGSKSIAYLQMNSLKTEDTAVYYCARGKRRDYGYWHPAFDVWGQGTMVTVSS VL: DIQMTQSPSSLSASVGDRVTITCQASQDITNYLNWYQQKPGKAPKLLIYDASNLETGVPSRFSGSGSGTDFTFTISSLQPEDIATYYCQEYDQYLTFGGGTKVEIK | binds
2 | EOS006174 (antibody, V domains shown) VH: EVQLVESGGGLVQPGRSLRLSCTASGFTFGEYTMSWFRQAPGKGLEWVGFIGSKAYAGTTEYTASVKGRFTISRDGSKSIAYLQMNSLKTEDTAVYYCARGKRYSYGGWVPAFDVWGQGTMVTVSS VL: DIQMTQSPSSLSASVGDRVTITCQASQDITNYLNWYQQKPGKAPKLLIYDASNLETGVPSRFSGSGSGTDFTFTISSLQPEDIATYYCQEYDSYLAFGGGTKVEIK | binds
3 | EOS006175 (antibody, V domains shown) VH: QVQLQESGPGLVKPSGTLSLTCAVSGGSISSSNWWSWVRQPPGKGLEWIGEIYHSGSTNYNPSLKSRVTISVDKSKNQFSLKLSSVTAADTAVYYCARDTKYWGGMDVWGQGTTVTVSS VL: DIQMTQSPSSLSASVGDRVTITCQASQDISNYLNWYQQKPGKAPKLLIYDASNLATGVPSRFSGSGSGTDFTFTISSLQPEDIATYYCQQYVEAPTFGGGTKVEIK | binds
4 | EOS006177 (antibody, V domains shown) VH: QVQLQESGPGLVKPSGTLSLTCAVSGGSISDSAWWSWVRQPPGKGLEWIGEIYHDADTNYNPSLKSRVTISVDKSKNQFSLKLSSVTAADTAVYYCARDTKYWGGMDVWGQGTTVTVSS VL: DIQMTQSPSSLSASVGDRVTITCQASQDISNYLNWYQQKPGKAPKLLIYDASNLATGVPSRFSGSGSGTDFTFTISSLQPEDIATYYCQQYVEAPTFGGGTKVEIK | binds
5 | EOS006181 (antibody, V domains shown) VH: EVQLVESGGGLVQPGRSLRLSCTASGFTFDDHAMSWFRQAPGKGLEWVGFIGSKAYGGTTEYTASVKGRFTISRDGSKSIAYLQMNSLKTEDTAVYYCARGKRYSYTYWTPAFDVWGQGTMVTVSS VL: DIQMTQSPSSLSASVGDRVTITCQASQDITNYLNWYQQKPGKAPKLLIYDASNLETGVPSRFSGSGSGTDFTFTISSLQPEDIATYYCQQYDSYLTFGGGTKVEIK | binds
6 | Ab52 (antibody, V domains shown) VH: QVQLVQSGAEVKKPGASVKVSCKASGYTFTSYYIHWVRQAPGQGLEWMGIINPSGGSTSYAQKFQGRVTMTRDTSTSTVYMELSSLRSEDTAVYYCAREADDSSGYPLGLDVWGQGTMVTVSS VL: EIVMTQSPATLSVSPGERATLSCRASQSVSSNLAWYQQKPGQAPRLLIYGASTRATGIPARFSGSGSGTEFTLTISSLQSEDFAVYYCQQVNSLPPTFGGGTKVEIK | binds
7 | EOS006164 (antibody, V domains shown) VH: EVQLVESGGGLVQPGRSLRLSCTASGFTFDDYTMSWFRQAPGKGLEWVGFIGSKAYSATTEYTASVKGRFTISRDGSKSIAYLQMNSLKTEDTAVYYCARGKRYSYTYWTPAFDVWGQGTMVTVSS VL: DIQMTQSPSSLSASVGDRVTITCQASQDITNYLNWYQQKPGKAPKLLIYDASNLETGVPSRFSGSGSGTDFTFTISSLQPEDIATYYCQEYDSYITFGGGTKVEIK | binds
8 | EOS006166 (antibody, V domains shown) VH: EVQLVESGGGLVQPGRSLRLSCTASGFTFGDYAMSWFRQAPGKGLEWVGFIGSKAYGGTTEYTASVKGRFTISRDGSKSIAYLQMNSLKTEDTAVYYCARGKRYSYGYWHPAFDVWGQGTMVTVSS VL: DIQMTQSPSSLSASVGDRVTITCQASQDITNYLNWYQQKPGKAPKLLIYDASNLETGVPSRFSGSGSGTDFTFTISSLQPEDIATYYCQQYDSYLTFGGGTKVEIK | binds
